Holding throughout (conditions): 10 mM Tris-Cl pH 7.5, 50 mM NaCl, 1 mM DTT, 0.25 mg/ml BSA, 2 mM MgCl2, 0.025% Nonidet P-40, 5% glycerol; 28 nM nucleosome library; 10 min on ice then 30 min …; high values mean tight binding; double strand, one strand shown
In one experiment the test system is KLF4 + histone octamer. The experiment can be described thus: EMSA with sequencing. A general note: A gel shift assay detects complexes by their altered migration in electrophoresis.
In another experiment the test system is SOX2 + histone octamer. Kind of experiment: EMSA with sequencing.
For experiment [1], the system named is c-MYC + MAX + histone octamer. Kind of experiment: EMSA with sequencing.
Another experiment relates to OCT4 + histone octamer. Kind of experiment: Pioneer-seq (competitive nucleosome EMSA with sequencing).
The test system of experiment [2] is c-MYC + MAX + histone octamer. Described as above.

This is one part of the list. For some of these results: At the low end of the ranking the order means little.

Take “GATGGACCCTATACGCGGCAGCCTGTCTGCAATTCTGCATCCACGTGCCTGCATGGTAATAACTGGCAGGAGCTGCACATGAGCTGCCTTTTGAGAAAGGGTCACACGCCCTTGAGTTCACTAGGTCCCCACCCAGCTGCTGTCTTACTCATCAACCTTTCCAACCAGGCCCTTGTTTGTTACCCTTGCGGCGGGGGAGGGGGGCGAAAATGCCAGTCGGATAGTGTTCC”: the binding signal (log2 relative supershift) in the experiment on KLF4 + histone octamer is 1.88; with SOX2 + histone octamer, 0.671; in experiment [1], 0.918; in the experiment with OCT4 + histone octamer it was -0.609.

Regarding “GATGGACCCTATACGCGGCGCTTGGTGCCTTCAGCAGGGGGTTCTGTGAAGGAGTAGCAGAGATGACAGCAGCAGAGACAGACAGACAGGGTGGGATGAAAATGTGGCAGGTGCAGAAAATGCAGCCGACTTTCTTTTGAGCAATGAGGAGCCATTGAAGAGTGTTGAAAAGCACATGGGGCAGGGCCTGTAGTAAGTGTTCGATAATTGTGCCAGTCGGATAGTGTTCC”, the binding signal (log2 relative supershift) with KLF4 + histone octamer was 2.41; with SOX2 + histone octamer, 0.405; in experiment [1], 0.885; with OCT4 + histone octamer, -0.306.

For the sequence “GATGGACCCTATACGCGGCTTGTTGTTTGTACCTTTAAGTCCTATCCTGTATTTATGGATGAAATGATGTCATGTCTGAGATTTGCTTCACAATAATGCAGTAGTGGGCAAAGAAGGGTGGAAGTGCAGATGACACGCAATAGGCTGTGTGCTGGTTAATTTTGAGGGTGGTTGATAGATATGTGTGGCTTATTGTACAGTTCCCTTTTTTGCCAGTCGGATAGTGTTCC”, the binding signal (log2 relative supershift) is 1.1 in the experiment on KLF4 + histone octamer, 0.848 in the experiment with SOX2 + histone octamer, -0.459 in the experiment on OCT4 + histone octamer and -0.145 in experiment [2].

“GATGGACCCTATACGCGGCGGGAGACCAGGCGTCCTGGTCCCTTCCTTCTGTCTCCGGCTCCCGCCCCCCAAGCAGAAACAGGTCCCTGCACGCCTCCAGCCCAGCCCGCAGCGCGGCGCAGCTCGGCGCAGCTCGGCGCTGGGAGCTCGCTCCGGACTTCTCGGGATTAACCTGCTATTATGTCCCGGAGCCCTTCCCTGCAATGGGCTTGCCAGTCGGATAGTGTTCC”: the binding signal (log2 relative supershift) in the experiment with KLF4 + histone octamer is 1.22; with SOX2 + histone octamer, 1.29; with OCT4 + histone octamer, -0.174; in experiment [2] it was -0.099.

In the case of “GATGGACCCTATACGCGGCTAAACAAAATAGAAAAGGAAGACTGGGGATAAGCTCTTGTCTGAACTCTGTCTCATCTCTGTGGCTAGGAGTGGCCCGCCTTTCCAGGCTGCCCAGCAAGTCACAGCATGTAGCCTTCCCTTTTGGTTCAAGGGAAGTCTAGTTAAAATAAGGGCAAAGCTGTCCTAGAGAGAAAAGATGTGATGAGCAGGTGCCAGTCGGATAGTGTTCC”, the binding signal (log2 relative supershift) in the experiment on KLF4 + histone octamer is 1.15; in the experiment with SOX2 + histone octamer, 1.02; in experiment [1], 0.33; in the experiment on OCT4 + histone octamer it was -0.313.

Regarding “GATGGACCCTATACGCGGCTCTTTAAAGAAAAAAAAAATGGCTATTGTTTTCCTGAGACCTCCCACATGTTGGGAAATAACTTACAGTGAGGCAGTTTCCTTGTGGTGTAGTCTGAACTCTTGAATAGCTGGCTGTGTATGGATTGCGGCAGTCACCATAACAATGGGCTCATCTTAAAACGTTCATTTAGATTCATTATTGGAACTGTGTGCCAGTCGGATAGTGTTCC”, the binding signal (log2 relative supershift) in the experiment on KLF4 + histone octamer was 1.5; in the experiment on SOX2 + histone octamer it was 2.05; in the experiment with OCT4 + histone octamer it was -0.0676; in experiment [2], -0.21.

Turning to “GATGGACCCTATACGCGGCTTTGGATATTTTAAAACAAATCCAGGAAGAGAGCAATGTACAACACAAAGGGATGAATCACAAATGGCAGAATTTCAGACATGAGTCAGAGATATTTTGGGTGTAGACCTGCCCTGTGTCCTATAACCCTACCACCTACTCACCTCACATTTCTCATATGAACTGATTGTTCTCTTGTTCCCTTTTTTTGTTGCCAGTCGGATAGTGTTCC”, the binding signal (log2 relative supershift) with KLF4 + histone octamer was 0.332; in the experiment on SOX2 + histone octamer, 2.13; in the experiment on OCT4 + histone octamer, -0.18; in experiment [2], -0.113.

For “GATGGACCCTATACGCGGCATTCTGAGACCCAGGCTGAAGAAGCAGTGGCCGCCTGGGGCATCCTTTTCTTATGGAGAGTAGCAGGAGTGCCAGACAGGAAGCGAAAAGACATAATGCCTCTGAGTCTCTCTTTGTGCTGGCATGCCACCATTGTGCCACACCCCATTCTTCAGTCAACGCACATCCTATGGCCCAGCCCAAGGTCAAGGTGCCAGTCGGATAGTGTTCC”, the binding signal (log2 relative supershift) in the experiment on KLF4 + histone octamer is 2.26; in the experiment with SOX2 + histone octamer it was 0.908; in experiment [1], 0.373; with OCT4 + histone octamer it was -0.584.

On to “GATGGACCCTATACGCGGCTTTGCCGAGAGGTTTGTTTCTGTTATAACTTTTCAAGACTGACTCCATTGTTTATTTTTGGAGCCAACTAGTCTTAGACCTCAGACCTCAGCACACTCAACAGGCCTCAACATGTTTTGAGGGCCTGCCGGAGAAGGCCCAGGCCTCACGGGTGCAGGTCCTACAGAAACCCAGTATCTGAGAGCAGCCTCTGCCAGTCGGATAGTGTTCC”, for which the binding signal (log2 relative supershift) in the experiment with KLF4 + histone octamer was 0.201; with SOX2 + histone octamer, 1.59; with OCT4 + histone octamer, -0.572; in experiment [2], -0.307.

As to “GATGGACCCTATACGCGGCGAGATTATGCCCTGCATGCCTTCGCTAATGTAGATGTTCCCAACCCCTAAGGTAGCACGTGGTGTGGGCGTGGTCAGCTCAGCTCATCCAACAATAAGAACACAGCTTGTTTGGAGCACTCACTATGCCAGCTTTAAAGCAACTCTACTCTGGAACTACCTCTCTTGGCCCCATGGACTGGCCACAAAAGCTGCCAGTCGGATAGTGTTCC”, the binding signal (log2 relative supershift) in the experiment on KLF4 + histone octamer is 0.931; in the experiment on SOX2 + histone octamer, 0.806; in experiment [1], 0.431; in the experiment on OCT4 + histone octamer, -0.622.

For the origin of these results see paper PMC12370185.
